Source: patent publication US20230089966A1, “METHOD FOR DIFFERENTIATION OF BRAIN MURAL CELLS FROM HUMAN PLURIPOTENT STEM CELLS” (WISCONSIN ALUMNI RESEARCH FOUNDATION, priority 2021, published 2023)
These are yes or no findings as the source states them, for the method shown. Binding seen in cells or lysates may run through a third protein. Some binding calls cover weakened binding; strength is not graded here. Where a sequence is shown, tags or fusion partners need not be part of it.

The chains behind the UniProt entries cited, without tags or fusion partners.
UniProt Q06330: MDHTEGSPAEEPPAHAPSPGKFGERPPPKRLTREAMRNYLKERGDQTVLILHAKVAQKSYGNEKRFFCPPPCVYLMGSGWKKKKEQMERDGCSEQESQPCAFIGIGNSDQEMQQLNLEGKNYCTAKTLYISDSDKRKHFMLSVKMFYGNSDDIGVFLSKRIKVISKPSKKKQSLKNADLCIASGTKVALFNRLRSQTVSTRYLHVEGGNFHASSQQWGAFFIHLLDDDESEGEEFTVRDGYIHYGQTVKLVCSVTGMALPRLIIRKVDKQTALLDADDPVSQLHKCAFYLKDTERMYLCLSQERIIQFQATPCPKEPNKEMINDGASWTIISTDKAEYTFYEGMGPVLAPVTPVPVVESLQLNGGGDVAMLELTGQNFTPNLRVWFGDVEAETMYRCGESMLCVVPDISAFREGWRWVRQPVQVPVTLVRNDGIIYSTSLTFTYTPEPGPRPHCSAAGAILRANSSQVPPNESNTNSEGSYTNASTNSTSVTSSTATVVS

Target: RBPJ (human) (UniProt Q06330)
Assay: co-immunoprecipitation with Notch3 antibody from lysate of N3ICD-GFP-transduced cells, anti-RBPJ Western blot

B1: human Notch3 intracellular domain (N3ICD), overexpressed from pWPI-N3ICD (N3ICD-GFP lentivirus) (receptor)
chain: MVMVARRKREHSTLWFPEGFSLHKDVASGHKGRREPVGQDALGMKNMAKGESLMGEVATDWMDTECPEAKRLKVEEPGMGAEEAVDCRQWTQHHLVAADIRVAPAMALTPPQGDADADGMDVNVRGPDGFTPLMLASFCGGALEPMPTEEDEADDTSASIISDLICQGAQLGARTDRTGETALHLAARYARADAAKRLLDAGADTNAQDHSGRTPLHTAVTADAQGVFQILIRNRSTDLDARMADGSTALILAARLAVEGMVEELIASHADVNAVDELGKSALHWAAAVNNVEATLALLKNGANKDMQDSKEETPLFLAAREGSYEAAKLLLDHFANREITDHLDRLPRDVAQERLHQDIVRLLDQPSGPRSPPGPHGLGPLLCPPGAFLPGLKAAQSGSKKSRRPPGKAGLGPQGPRGRGKKLTLACPGPLADSSVTLSPVDSLDSPRPFGGPPASPGGFPLEGPYAAATATAVSLAQLGGPGRAGLGRQPPGGCVLSLGLLNPVAVPLDWARLPPPAPPGPSFLLPLAPGPQLLNPGTPVSPQERPPPYLAVPGHGEEYPAAGAHSSPPKARFLRVPSEHPYLTPSPESPEHWASPSPPSLSDWSESTPSPATATGAMATTTGALPAQPLPLSVPSSLAQAQTQLGPQPEVTPKRQVLA
  binding: binds
